No constants are given. Whether binding was seen depends on the method and setting. Binding seen in cells or lysates may run through a third protein. Some results given as binding are weak or reduced against the parent protein; the word gives no strength.

Sequences of proteins named here, by UniProt entry; tags and fusion partners are left off.
UniProt P42336: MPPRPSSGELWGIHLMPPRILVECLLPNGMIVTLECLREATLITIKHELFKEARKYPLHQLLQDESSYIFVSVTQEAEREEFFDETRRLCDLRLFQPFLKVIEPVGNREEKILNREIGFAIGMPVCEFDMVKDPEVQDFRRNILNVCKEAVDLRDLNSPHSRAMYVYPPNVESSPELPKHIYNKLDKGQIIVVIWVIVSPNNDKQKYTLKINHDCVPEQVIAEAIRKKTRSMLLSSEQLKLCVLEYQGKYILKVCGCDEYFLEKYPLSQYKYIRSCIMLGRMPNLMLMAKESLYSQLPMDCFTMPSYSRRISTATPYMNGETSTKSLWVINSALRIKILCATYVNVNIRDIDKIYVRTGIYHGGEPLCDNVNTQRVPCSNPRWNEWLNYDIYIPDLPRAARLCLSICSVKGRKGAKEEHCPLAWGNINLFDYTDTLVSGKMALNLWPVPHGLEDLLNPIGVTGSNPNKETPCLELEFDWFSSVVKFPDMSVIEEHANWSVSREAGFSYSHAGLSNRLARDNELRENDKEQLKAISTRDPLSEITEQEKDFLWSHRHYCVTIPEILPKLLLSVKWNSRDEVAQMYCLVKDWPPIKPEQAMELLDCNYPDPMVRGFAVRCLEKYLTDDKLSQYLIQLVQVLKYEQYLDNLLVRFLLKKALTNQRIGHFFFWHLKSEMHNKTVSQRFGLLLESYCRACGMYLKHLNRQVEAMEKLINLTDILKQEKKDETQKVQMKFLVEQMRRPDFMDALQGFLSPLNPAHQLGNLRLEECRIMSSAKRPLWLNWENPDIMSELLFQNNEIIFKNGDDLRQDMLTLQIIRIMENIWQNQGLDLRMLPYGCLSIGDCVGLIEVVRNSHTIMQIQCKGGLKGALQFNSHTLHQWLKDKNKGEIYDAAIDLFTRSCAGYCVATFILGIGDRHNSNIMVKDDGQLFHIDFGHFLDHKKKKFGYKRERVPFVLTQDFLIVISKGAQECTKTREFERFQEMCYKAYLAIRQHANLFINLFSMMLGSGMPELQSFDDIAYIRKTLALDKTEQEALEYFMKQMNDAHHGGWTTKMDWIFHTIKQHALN
UniProt P27986: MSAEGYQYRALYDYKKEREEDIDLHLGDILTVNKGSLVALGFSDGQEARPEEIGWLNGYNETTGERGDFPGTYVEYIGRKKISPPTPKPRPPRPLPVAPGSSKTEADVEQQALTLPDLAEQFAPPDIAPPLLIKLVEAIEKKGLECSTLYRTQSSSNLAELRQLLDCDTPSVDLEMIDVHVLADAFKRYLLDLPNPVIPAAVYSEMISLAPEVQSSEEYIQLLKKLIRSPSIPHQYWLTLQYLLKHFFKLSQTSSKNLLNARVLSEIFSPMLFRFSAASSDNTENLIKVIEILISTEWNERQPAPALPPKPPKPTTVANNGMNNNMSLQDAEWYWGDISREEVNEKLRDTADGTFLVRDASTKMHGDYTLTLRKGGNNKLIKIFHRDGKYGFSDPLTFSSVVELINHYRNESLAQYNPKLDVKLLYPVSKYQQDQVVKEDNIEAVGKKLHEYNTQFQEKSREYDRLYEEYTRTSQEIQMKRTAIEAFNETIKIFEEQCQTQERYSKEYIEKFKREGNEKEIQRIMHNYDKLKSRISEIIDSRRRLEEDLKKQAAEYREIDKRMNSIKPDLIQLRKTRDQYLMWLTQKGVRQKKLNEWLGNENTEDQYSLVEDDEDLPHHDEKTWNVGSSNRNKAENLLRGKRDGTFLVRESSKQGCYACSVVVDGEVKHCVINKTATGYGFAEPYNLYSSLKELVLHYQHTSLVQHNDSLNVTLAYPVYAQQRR

The target in test [1] is T1, testes-specific protease 50 (TSP50), endogenous (human (endogenous in MCF7 and MDA-MB-231)) (UniProt Q9UI38).
T1 sequence: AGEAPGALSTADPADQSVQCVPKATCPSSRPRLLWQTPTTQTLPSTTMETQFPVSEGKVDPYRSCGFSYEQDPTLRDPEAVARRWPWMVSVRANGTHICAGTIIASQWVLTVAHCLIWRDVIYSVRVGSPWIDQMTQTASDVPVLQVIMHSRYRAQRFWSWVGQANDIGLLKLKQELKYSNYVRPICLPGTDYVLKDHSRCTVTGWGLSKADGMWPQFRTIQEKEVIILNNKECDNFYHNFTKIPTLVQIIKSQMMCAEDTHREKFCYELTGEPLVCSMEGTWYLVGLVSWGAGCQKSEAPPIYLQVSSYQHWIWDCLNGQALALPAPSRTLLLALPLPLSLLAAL
The test is described as follows: co-IP; IP with anti-TSP50 antibody on protein A/G magnetic beads from MCF7 and MDA-MB-231 cells; Western blot with anti-AKT, anti-p85α or anti-p110α.

For test [2], the target named is PI3K p110α catalytic subunit, endogenous (human (endogenous in MCF7 and MDA-MB-231)) (UniProt P42336). The test is described as follows: co-IP; IP with anti-p110α antibody on protein A/G magnetic beads from MCF7 and MDA-MB-231 cells; Western blot with anti-TSP50 and anti-p85α; cells untreated, stably overexpressing NC or TSP50 (MCF7), transfected with shNC or shTSP50 (MDA-MB-231), or transfected with Flag-TSP50 wild type or D206A. Background: A western blot detects proteins with antibodies after separation by electrophoresis.

On to “PI3K p85α regulatory subunit, endogenous (from UniProt P27986 1-724)”, for which, in test [1], the binding entry is given as “no binding”.

B1: testes-specific protease 50 (TSP50), endogenous (protein, UniProt Q9UI38 40-385)
chain: AGEAPGALSTADPADQSVQCVPKATCPSSRPRLLWQTPTTQTLPSTTMETQFPVSEGKVDPYRSCGFSYEQDPTLRDPEAVARRWPWMVSVRANGTHICAGTIIASQWVLTVAHCLIWRDVIYSVRVGSPWIDQMTQTASDVPVLQVIMHSRYRAQRFWSWVGQANDIGLLKLKQELKYSNYVRPICLPGTDYVLKDHSRCTVTGWGLSKADGMWPQFRTIQEKEVIILNNKECDNFYHNFTKIPTLVQIIKSQMMCAEDTHREKFCYELTGEPLVCSMEGTWYLVGLVSWGAGCQKSEAPPIYLQVSSYQHWIWDCLNGQALALPAPSRTLLLALPLPLSLLAAL
For the molecule B1, the binding entry in test [2] is “binds”.

B2: TSP50, stably overexpressed by lentivirus (protein, UniProt Q9UI38 40-385)
chain: AGEAPGALSTADPADQSVQCVPKATCPSSRPRLLWQTPTTQTLPSTTMETQFPVSEGKVDPYRSCGFSYEQDPTLRDPEAVARRWPWMVSVRANGTHICAGTIIASQWVLTVAHCLIWRDVIYSVRVGSPWIDQMTQTASDVPVLQVIMHSRYRAQRFWSWVGQANDIGLLKLKQELKYSNYVRPICLPGTDYVLKDHSRCTVTGWGLSKADGMWPQFRTIQEKEVIILNNKECDNFYHNFTKIPTLVQIIKSQMMCAEDTHREKFCYELTGEPLVCSMEGTWYLVGLVSWGAGCQKSEAPPIYLQVSSYQHWIWDCLNGQALALPAPSRTLLLALPLPLSLLAAL
On to B2, for which, in test [2], the binding entry is recorded as “binds”.

The values are drawn from publication PMC11264956.
